NMR binding call data for 23 molecules are collected here from the supplement of paper PMC8426693.

Common to all, as to assay: NMR binding call after quantification (hit when 2 of 3 NMR criteria are met) (binary (1 = binding, 0 = not binding)); higher = binding
What all share (settings): RNA concentration 10 µM; fragment concentration 200 µM; 293 K

One test relates to SARS-CoV-2 5_SL7 RNA.
For a further test, the system named is SARS-CoV-2 5_SL8 RNA.
Test [1] deals with SARS-CoV-2 attenuator hairpin (att HP) RNA.
Test [2] deals with SARS-CoV-2 frameshift pseudoknot (PK) RNA.

The list shows a part of the results.

Turning to `COc1cc(NC(C)=O)c(OC)cc1Cl`, the NMR binding call (with SARS-CoV-2 5_SL7 RNA; in the test on SARS-CoV-2 5_SL8 RNA; in test [1]; in test [2]) was 0 in each case.
As to `CC1CC1C(=O)NCCc1ccc(Cl)cc1` (configuration not stated), the NMR binding call (with SARS-CoV-2 5_SL7 RNA; with SARS-CoV-2 5_SL8 RNA; in test [1]; in test [2]) was 0 throughout.
In the case of `CC1CN(Cc2nnsc2Cl)C(C)CO1` (configuration not stated), the NMR binding call (in the test with SARS-CoV-2 5_SL7 RNA; with SARS-CoV-2 5_SL8 RNA; in test [1]; in test [2]) was 0 each time.
Consider `CC(Oc1ccc(C#N)cc1)C(N)=O` (configuration not stated), for which the NMR binding call (in the test with SARS-CoV-2 5_SL7 RNA; with SARS-CoV-2 5_SL8 RNA; in test [1]; in test [2]) was 0 each time.
Turning to `CC(C)C(=O)NCC1CCCNC1` (configuration not stated), the NMR binding call (with SARS-CoV-2 5_SL7 RNA; in the test with SARS-CoV-2 5_SL8 RNA; in test [1]; in test [2]) was 0 each time.
For `O=C(O)c1ccc(OCc2ccccc2)cc1`, the NMR binding call (with SARS-CoV-2 5_SL7 RNA; with SARS-CoV-2 5_SL8 RNA; in test [1]; in test [2]) was 0 throughout.
On to `CC(C)Nc1nc2ccccc2[nH]1`, for which the NMR binding call (in the test with SARS-CoV-2 5_SL7 RNA; in the test with SARS-CoV-2 5_SL8 RNA; in test [1]; in test [2]) was 0 each time.
On to `CC(=O)NCCc1ccc(S(N)(=O)=O)cc1`, for which the NMR binding call (with SARS-CoV-2 5_SL7 RNA; with SARS-CoV-2 5_SL8 RNA; in test [1]; in test [2]) was 0 in each case.
On to `NC(=S)Nc1ccc(OC(F)(F)F)cc1`, for which the NMR binding call (in the test on SARS-CoV-2 5_SL7 RNA; in the test on SARS-CoV-2 5_SL8 RNA; in test [1]; in test [2]) was 0 throughout.
Consider `CC1COCCN1CCN` (configuration not stated), for which the NMR binding call (in the test with SARS-CoV-2 5_SL7 RNA; with SARS-CoV-2 5_SL8 RNA; in test [1]; in test [2]) was 0 in each case.
As for `CC(=O)NC1CCC(N)CC1` (configuration not stated), the NMR binding call (in the test with SARS-CoV-2 5_SL7 RNA; with SARS-CoV-2 5_SL8 RNA; in test [1]; in test [2]) was 0 in each case.
As to `Nc1nccc(-c2ccc(Cl)cc2)n1`, the NMR binding call in the test with SARS-CoV-2 5_SL7 RNA worked out at 0; in the test on SARS-CoV-2 5_SL8 RNA, 0; in test [1], 0; in test [2], 1.
Take `COCC(=O)NCc1nc2ccccc2[nH]1`: the NMR binding call (in the test on SARS-CoV-2 5_SL7 RNA; in the test on SARS-CoV-2 5_SL8 RNA; in test [1]; in test [2]) was 0 throughout.
With `O=c1[nH]cc(N2CCOCC2)c(=O)[nH]1`, the NMR binding call (in the test with SARS-CoV-2 5_SL7 RNA; in the test on SARS-CoV-2 5_SL8 RNA; in test [1]; in test [2]) was 0 in each case.
For the molecule `Cc1cccc(C(=O)N(C)C)c1C`, the NMR binding call (in the test on SARS-CoV-2 5_SL7 RNA; in the test with SARS-CoV-2 5_SL8 RNA; in test [1]; in test [2]) was 0 each time.
With `CC(C)C(=O)Nc1cccc(C#N)c1`, the NMR binding call (with SARS-CoV-2 5_SL7 RNA; with SARS-CoV-2 5_SL8 RNA; in test [1]; in test [2]) was 0 each time.
As for `CC(C)n1cc(C(=O)O)nn1`, the NMR binding call (in the test with SARS-CoV-2 5_SL7 RNA; with SARS-CoV-2 5_SL8 RNA; in test [1]; in test [2]) was 0 each time.
For the molecule `CC(=O)N1CC2CCC1c1ccccc12` (configuration not stated), the NMR binding call (in the test on SARS-CoV-2 5_SL7 RNA; in the test with SARS-CoV-2 5_SL8 RNA; in test [1]; in test [2]) was 0 each time.
With `CCn1nccc1CNC.Cl.Cl`, the NMR binding call (in the test with SARS-CoV-2 5_SL7 RNA; with SARS-CoV-2 5_SL8 RNA; in test [1]; in test [2]) was 0 each time.
For the molecule `c1nc(N2CCC2)c2[nH]cnc2n1`, the NMR binding call (in the test with SARS-CoV-2 5_SL7 RNA; in the test with SARS-CoV-2 5_SL8 RNA; in test [1]; in test [2]) was 0 throughout.
Consider `CC1C(O)CCCN1Cc1ccccc1` (configuration not stated), for which the NMR binding call (in the test with SARS-CoV-2 5_SL7 RNA; with SARS-CoV-2 5_SL8 RNA; in test [1]; in test [2]) was 0 throughout.
Take `Cc1[nH][nH]c(=O)c1CCO`: the NMR binding call (with SARS-CoV-2 5_SL7 RNA; with SARS-CoV-2 5_SL8 RNA; in test [1]; in test [2]) was 0 in each case.
As to `O=C1CN(C(=O)COc2ccccc2)CCN1`, the NMR binding call (in the test with SARS-CoV-2 5_SL7 RNA; in the test on SARS-CoV-2 5_SL8 RNA; in test [1]; in test [2]) was 0 in each case.
